Results are given in words; binding and its absence hold for the method and conditions named. Some binding calls cover weakened binding; strength is not graded here.

The target of this assay is T1, CLEVER-1 coated on the ELISA plate (competition ELISA, Examples 5 and 10) (human) (UniProt Q9NY15).
T1 sequence (looked up): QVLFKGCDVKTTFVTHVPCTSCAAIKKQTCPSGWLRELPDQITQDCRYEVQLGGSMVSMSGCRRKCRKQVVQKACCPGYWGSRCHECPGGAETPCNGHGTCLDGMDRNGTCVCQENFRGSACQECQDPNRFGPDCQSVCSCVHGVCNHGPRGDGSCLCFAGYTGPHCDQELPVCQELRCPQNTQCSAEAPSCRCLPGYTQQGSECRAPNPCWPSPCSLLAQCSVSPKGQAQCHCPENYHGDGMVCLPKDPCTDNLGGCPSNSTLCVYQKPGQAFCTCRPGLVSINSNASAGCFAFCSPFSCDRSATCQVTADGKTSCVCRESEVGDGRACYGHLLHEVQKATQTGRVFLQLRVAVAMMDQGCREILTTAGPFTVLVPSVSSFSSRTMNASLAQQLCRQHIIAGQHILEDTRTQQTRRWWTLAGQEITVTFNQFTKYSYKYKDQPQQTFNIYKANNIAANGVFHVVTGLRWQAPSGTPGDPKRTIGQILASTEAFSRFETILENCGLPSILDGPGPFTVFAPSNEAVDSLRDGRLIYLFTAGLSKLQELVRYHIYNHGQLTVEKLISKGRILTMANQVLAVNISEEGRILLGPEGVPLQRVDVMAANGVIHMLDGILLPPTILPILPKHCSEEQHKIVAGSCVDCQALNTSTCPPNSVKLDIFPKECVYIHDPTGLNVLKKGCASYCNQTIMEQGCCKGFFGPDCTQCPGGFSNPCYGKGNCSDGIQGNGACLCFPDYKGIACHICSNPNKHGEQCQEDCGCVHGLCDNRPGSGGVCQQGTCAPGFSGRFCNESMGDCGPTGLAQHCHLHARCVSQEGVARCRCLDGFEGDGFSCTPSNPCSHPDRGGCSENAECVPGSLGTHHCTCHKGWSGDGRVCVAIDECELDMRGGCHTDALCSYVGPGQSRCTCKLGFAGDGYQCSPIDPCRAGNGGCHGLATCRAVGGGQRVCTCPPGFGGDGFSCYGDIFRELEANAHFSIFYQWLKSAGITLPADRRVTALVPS
Kind of assay: competition ELISA on coated CLEVER-1. Background: An ELISA detects its analyte on a solid surface through an enzyme-linked reagent.

B1: chimeric 3-372 IgG4 (antibody, V domains shown)
VH: QVTLKESGPGILQPSQTLSLTCSFSGFSLNTSGMGIGWIRQPSGKGLEWLAHIWWDDDKRYNPALKSRLTISKDTSSNQVFLKIASVDTADTATYYCARHYGYDPYYAMDYWGQGTSVTVSS
VL: QIVLTQSPAIMSASLGERVTMTCTASSSVSSSYLHWYQQRPGSSPKLCIYRTSNLASGVPPRFSGSGSGTSYSLTISSMEAEDAATYYCHQYHRSPPTFGGGTKLEIN
notes: Expressed in NSO cells; also called CH/CK; chimera
Turning to B1, the binding entry was “binds”.

For the origin of these results see patent US20190194317A1 (FARON PHARMACEUTICALS, published 2019).
